PubChem BioAssay AID686943, Drosophila RNAi Screening Center, 2013
Aim: 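Search across the genome for regulators of signalling from receptor tyrosine kinase to ERK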 (primary screen). Cells: Drosophila S2R+ haemocyte-like cells expressing YFP-tagged ERK (Rolled). Reagents: long dsRNA against Drosophila genes. Conditions: insulin stimulation versus unstimulated cells; dose and duration not given. Read-out: 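Per-plate z-scores of phospho-ERK immunostaining normalised to YFP-tagged ERK, measured with and without insulin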. Direction: replicate 1, z-score of dpERK with insulin and replicate 2, z-score of dpERK with insulin: higher = more active ERK per ERK-YFP after insulin; replicate 1, z-score of dpERK under basal conditions: higher = more basal active ERK per ERK-YFP.
The screen tested about 23,000 reagents; shown is an unselected part of those that have a named target and a result. 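Extra replicates exist only for a retested subset of genes; insulin dose and duration not given; both raised and lowered dpERK matter.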 Not all columns of the deposit are shown. No sequences are given here. Not stated in the record: the amount of reagent, the time to read-out.

gene | dsRNA | replicate 1, z-score of dpERK with insulin | replicate 2, z-score of dpERK with insulin | replicate 1, z-score of dpERK under basal conditions
CG10352 | DRSC19353 | 0.15 | -0.17 | -0.85
CG9444 | DRSC16493 | 0.13 | 0.19 | 0.06
Recs1 | DRSC16545 | -0.4 | -1.51 | 0.42
qtc (quick-to-court) | DRSC02364 | -0.59 | 0 | 0.19
qtc (quick-to-court) | DRSC02365 | -0.27 | -0.34 | -0.17
grsm (granny smith) | DRSC14165 | 0.22 | -1.48 | -0.74
grsm (granny smith) | DRSC14843 | 0.03 | -1.7 | -0.06
CG15617 | DRSC06570 | 0.42 | 0.45 | 0.38
wat (waterproof) | DRSC14854 | -0.63 | -0.02 | 0.49
spz5 (spatzle 5) | DRSC08645 | 1.27 | 0.2 | 0.73
CG43109 | DRSC05754 | 2.55 | 1.12 | -0.36
ox (oxen) | DRSC07520 | -1.13 | 0.06 | -1.18
Gr22d (Gustatory receptor 22d) | DRSC21653 | 0.05 | -0.18 | -0.54
PPP1R15 (Protein phosphatase 1 regulatory subunit 15) | DRSC04422 | -3.17 | -2.46 | -1.89

In a second layout: 4 of the entries above.
qtc (quick-to-court) [DRSC02364] — replicate 1, z-score of dpERK with insulin: -0.59; replicate 2, z-score of dpERK with insulin: 0; replicate 1, z-score of dpERK under basal conditions: 0.19
qtc (quick-to-court) [DRSC02365] — replicate 1, z-score of dpERK with insulin: -0.27; replicate 2, z-score of dpERK with insulin: -0.34; replicate 1, z-score of dpERK under basal conditions: -0.17
grsm (granny smith) [DRSC14165] — replicate 1, z-score of dpERK with insulin: 0.22; replicate 2, z-score of dpERK with insulin: -1.48; replicate 1, z-score of dpERK under basal conditions: -0.74
grsm (granny smith) [DRSC14843] — replicate 1, z-score of dpERK with insulin: 0.03; replicate 2, z-score of dpERK with insulin: -1.7; replicate 1, z-score of dpERK under basal conditions: -0.06

Additional reagents:
gene | dsRNA | replicate 1, z-score of dpERK with insulin | replicate 2, z-score of dpERK with insulin | replicate 1, z-score of dpERK under basal conditions
CG12942 | DRSC06253 | -0.1 | -0.02 | -0.87
Droj2 (DnaJ-like-2) | DRSC16450 | 2.27 | 3.04 | 1.47
CG13390 | DRSC02261 | -0.01 | -0.06 | 0.28
CG15155 | DRSC02456 | -0.65 | 0.15 | -1.27
Rbcn-3A (Rabconnectin-3A) | DRSC18314 | 0.98 | -0.23 | 0.71
CG9368 | DRSC11067 | 1.96 | 1.33 | -0.11
mew (multiple edematous wings) | DRSC18971 | 0.44 | 0.79 | -0.01
mew (multiple edematous wings) | DRSC20352 | -0.42 | -0.47 | -0.61
CG34204 | DRSC03897 | -0.19 | -1.21 | -0.92
Gprk1 (G protein-coupled receptor kinase 1) | DRSC20732 | 0.29 | 0.12 | 0.26
Gprk1 (G protein-coupled receptor kinase 1) | DRSC20916 | -0.48 | 0.91 | -1
CG34376 | DRSC14695 | -1.97 | -2.76 | -2.13
CG34376 | DRSC14696 | 0.48 | 0.07 | 0.84
CG34376 | DRSC14701 | 1.18 | -1.03 | 0.81
Ccp84Ab | DRSC12587 | -0.47 | -0.64 | -0.51
PTP-ER (Protein tyrosine phosphatase-ERK/Enhancer of Ras1) | DRSC04636 | 0.86 | 0.79 | 2.16
CG14757 | DRSC06492 | 0.42 | -0.2 | -0.63
TER94 (Transitional endoplasmic reticulum 94) | DRSC07560 | 0.14 | -0.98 | -2.45
CG10338 | DRSC02039 | 0.61 | 0.88 | 1.47
pros (prospero) | DRSC12856 | -0.2 | -0.22 | -0.33
pros (prospero) | DRSC17032 | 0.59 | -0.29 | -0.33
pros (prospero) | DRSC22612 | -0.26 | -0.36 | -1.35
alc (alicorn) | DRSC07062 | 0.61 | 0.16 | 0.14
alc (alicorn) | DRSC21464 | -0.57 | -0.97 | -0.38
CG6484 | DRSC06991 | -0.33 | 0.23 | -0.07
